Results are given in words; binding and its absence hold for the method and conditions named. Some binding calls cover weakened binding; strength is not graded here.
Target: SyB-Cph1 (GAF-PHY) chromoprotein assembled with PCB (Synechococcus sp. OS Type B′)
Assay: size exclusion chromatography (Superose 6), non-denaturing; homodimerisation

binding: binds
B1: SyB-Cph1 (GAF-PHY) chromoprotein assembled with PCB (protein)
chain: MDTETWAAAARPSRDALINRITHQIRQSLELDQILRATVEEVRAFLGTDRVKVYRFDPEGHGTVVAEARGGERLPSLLGLTFPAGDIPEEARRLFRLAQVRVIVDVEAQSRSISQPESWGLSARVPLGEPLQRPVDPCHVHYLKSMGVASSLVVPLMHHQELWGLLVSHHAEPRPYSQEELQVVQLLADQVSIAIAQAELLEQARQKAQQERLINQIAALVYSPLHPETTLTTVLEQLAAGLQGIGARLRIHFMGADTLCCHGVQPPASYDTWLQEQLGRAGGAGGWVKMWSLSHLEKWPELQEQMKQTPIRGLLVAQLAWNDQPVGWLSVFRGAVYQETHWAGYRWFTQGDPRQELPLISFAAWRELKIDEPKAWSAAEQELMSRVGVHLALSITQNQLYRQLQTLNARLEQEVQERTAAHHHHHH
modifications: phycocyanobilin (PCB) covalently bound at Cys-138
